Source: PubChem BioAssay AID2685 (National Center for Advancing Translational Sciences (NCATS), 2010)
The list shows a part of the results. Further columns of the screen follow, without active or inactive calls. Compounds called inactive in the main read-out are mostly missing here. Potencies come from curve fits of mixed quality, noted in brackets.

Experiment: qHTS Assay for Lipid Storage Modulators in Drosophila S3 Cells;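 on cell number change: cells counted by Cell Tracker Red CMTPX staining in the red channel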
Conditions: BODIPY lipid droplet fluorescence, 18-24 h; for cell number change: measured here: cell count max response, cells fed with added oleic acid
How it was run: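 Drosophila S3 cells loaded with oleic acid (400 uM, as added) and compounds at several concentrations; lipid droplets imaged by 488-nm laser-scanning cytometry, 500–530 nm intensity and object ratio to cell channel. Percent activity normalized to 20 uM Triacsin C.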

[1] = measured here: lipid fluorescence (Fed channel) AC50, cells fed with added oleic acid
[2] = measured here: cell number channel AC50, cells fed with added oleic acid

Row | SMILES | cell number change [%] | AC50 [1] | AC50 [2]
1 | CC(C)NS(=O)(=O)c1ccc(NC(=O)C(C)OC(=O)CCC2CCCCC2)cc1 (stereo unspecified) | -27.6 | – | –
2 | CCN(CC)c1ncc(C)c(=O)[nH]1 | 0.369 | 5.17 µM [falling, full curve] | –
3 | CC1=C(C(=O)Nc2ccccc2C(=O)NCCCOC(C)C)SCCO1 | 16.9 | 6.51 µM [falling, single point] | –
4 | COCC1CCN(C(=O)c2cc(COc3ccc(-n4cncn4)cc3)on2)CC1 | -2.16 | 2.06 µM [rising, partial curve, poor fit] | –
5 | O=C(NCc1ccc(C(F)(F)F)cc1)C1CC(c2ccccc2[N+](=O)[O-])=NO1 (stereo unspecified) | -18.3 | – | –
6 | COc1ccc(COCCN2CCN(S(=O)(=O)c3ccccc3)CCC2=O)cc1 | 4.29 | 11.6 µM [rising, partial curve] | –
7 | O=C(CSc1nnc2n(C3CCCCC3)c(=O)c3ccccc3n12)OC1CCCCC1 | -25.1 | – | –
8 | O=C(COC(=O)C12CC3CC(CC(O)(C3)C1)C2)NC(=O)NCc1ccco1 | 2.42 | 4.61 µM [falling, full curve, poor fit] | –
9 | COc1ccc(/C(C)=N/NC(=O)c2ccc3nc[nH]c3c2)cc1 | -26 | – | –
10 | OC(c1ccccc1)(C1CCCCC1)C(CN1CCOCC1)c1ccccc1 (stereo unspecified) | -57.8 | 29.1 µM [falling, single point] | 20.6 µM [falling, single point]
11 | Cc1cc(C)nc(NS(=O)(=O)c2ccc(NC(=O)Nc3ccccc3)cc2)n1 | – | 6.51 µM [rising, single point] | 3.26 µM [rising, single point]
12 | Cn1c(CCNC(=O)c2ccc(F)cc2)nc2ccccc21 | 5.03 | – | –
13 | CCC(=O)Nc1ccc2c(c1)C(=O)N(C)C2=O | -9.58 | 29.1 µM [falling, single point] | –
14 | CC(C)(C)N1C(=O)c2ccccc2NC(=O)N1Cc1ccc(Br)cc1 | 28.1 | – | –
15 | O=C(OC(C(=O)NCc1ccccc1)c1ccccc1)c1ccco1 (stereo unspecified) | 17.9 | 0.116 µM [falling, single point] | –
16 | COc1ccc(-c2cc(C)no2)cc1S(=O)(=O)NCC(C)c1ccccc1 (stereo unspecified) | -16 | 29.1 µM [falling, single point] | –
17 | COc1ccc(C(=O)Nc2ccc(S(=O)(=O)N3CCOCC3)cc2)cc1[N+](=O)[O-] | -1.35 | 29.1 µM [falling, single point] | –
18 | CC1(C)CC(=O)C2=C(C1)Nc1ccccc1NC2c1ccc(F)c(F)c1 (stereo unspecified) | -22.3 | 14.6 µM [falling, single point] | –
19 | Cn1cc([N+](=O)[O-])c(C(=O)NC2CCCCCCC2)n1 | 11.6 | – | –
20 | COc1cc(C(=O)Nc2nccs2)ccc1OCc1c(C)noc1C | – | 0.291 µM [rising, partial curve] | 0.259 µM [rising, partial curve, poor fit]

Row | SMILES | cell number change [%] | AC50 [1] | AC50 [2]
21 | CCOc1ccc(C(CC(=O)O)NC(=O)C(CC)c2ccccc2)cc1 (stereo unspecified) | -1.39 | 29.1 µM [falling, single point] | –
22 | COc1ccc(-c2nc3nc(C)cc(Nc4cccc(C(F)(F)F)c4)n3n2)cc1 | 12.4 | 9.2 µM [rising, partial curve] | –
23 | COc1ccc(NC(=O)c2cc(-c3ccccc3)oc2C)cc1 | 38.5 | – | 10.3 µM [rising, partial curve, poor fit]
24 | Cc1ccc(-c2nc(COC(=O)c3c(C)noc3C)cs2)cc1 | -26.4 | 16.4 µM [falling, single point] | –
25 | Cn1c(SCC(=O)Nc2ccc(N3CCOCC3)cc2)nnc1C(F)(F)F | 2.33 | 0.651 µM [falling, single point] | –
26 | CCOC(=O)CSc1nc2ccc(S(=O)(=O)N3CCOCC3)cc2[nH]1 | -15.3 | 0.206 µM [falling, full curve, poor fit] | 0.0651 µM [falling, partial curve]
27 | Cc1ccc(N2CCN(C(=O)C3CCC(=O)N(Cc4ccc(Cl)cc4)C3)CC2)c(C)c1 (stereo unspecified) | – | 0.58 µM [falling, single point] | –
28 | O=C(Nc1scc(-c2ccccc2)c1C(=O)O)c1ccccc1F | 37.5 | 29.1 µM [rising, single point] | –
29 | CCOc1ccc(C(=O)Cc2ccc3oc(C(=O)O)cc3c2)c(O)c1 | -101 | 20.6 µM [falling, partial curve] | 32.6 µM [falling, partial curve]
30 | O=c1[nH][nH]c2cc(=O)n(-c3cccc(C(F)(F)F)c3)nc12 | -24.8 | 23.1 µM [falling, single point] | –
31 | CCc1ccc(C(=O)Nc2cccc(-c3nn[nH]n3)c2)s1 | -19.2 | – | –
32 | Cc1cccc(N2CC(C(=O)Nc3nnc(SCC(=O)Nc4nccs4)s3)CC2=O)c1 (stereo unspecified) | -66.7 | 0.0651 µM [falling, full curve, poor fit] | 0.0146 µM [falling, full curve]
33 | CC(=O)N(c1ccc(C)cc1)c1nc(C)cc(C)c1C#N | 15.2 | – | –
34 | O=C(NCCCN1CCCCC1)c1ccc2c(=O)n(CCc3ccccc3)c(=O)[nH]c2c1 | -48.2 | 23.1 µM [rising, single point] | 18.4 µM [falling, single point]
35 | Cc1ccc(N(C)C(=O)C2CCCN2S(=O)(=O)c2ccc3c(c2)n(C)c(=O)c(=O)n3C)cc1 (stereo unspecified) | -25.5 | – | –
36 | Cc1nn(CC(=O)Nc2ccc(Cl)cc2)c(=O)c2cc(-c3ccccc3)nn12 | -8.55 | 0.13 µM [falling, full curve, poor fit] | –
37 | CCCOC(=O)C[N+](C)(C)CCOC1CC2CCC1(C)C2(C)C (stereo unspecified) | 22.6 | – | –
38 | Cc1cc(C(=O)NC2CC(C)(C)Cc3c2cnn3-c2cccc(F)c2)nn1C (stereo unspecified) | -6.65 | 0.00517 µM [rising, full curve, poor fit] | –
39 | CCOC(=O)C1CCN(C(=O)c2cccc(S(=O)(=O)NCc3ccccc3)c2)CC1 | 36.4 | 1.16 µM [falling, full curve, poor fit] | 29.1 µM [rising, single point]
40 | COc1ccc(C(=O)NCCNC(=O)c2cc(OCC(F)(F)F)ccc2OCC(F)(F)F)cc1 | -12.6 | 8.2 µM [rising, partial curve, poor fit] | –

Row | SMILES | cell number change [%] | AC50 [1] | AC50 [2]
41 | C/C(=N\NC(=O)C(O)c1ccccc1)c1ccc(Cl)cc1 (stereo unspecified) | -25.5 | 2.91 µM [falling, partial curve] | –
42 | CC(/C=N/n1c(COc2ccccc2)n[nH]c1=S)=C\c1ccco1 | -27.8 | 32.6 µM [falling, single point] | –
43 | CC(=O)c1coc2c1cc(O)c1ccccc12 | 9.46 | 6.51 µM [falling, single point] | –
44 | Cc1ccc(-c2cc(-c3ccccc3Cl)[nH]n2)c(O)c1 | -68.5 | 0.00517 µM [falling, full curve, poor fit] | 29.1 µM [falling, single point]
45 | CCCC(=O)Nc1ccc2c(c1)c1ccccc1n2CC | – | – | 6.51 µM [rising, single point]
46 | O=c1cc(CSc2nnc(Nc3ccccc3)s2)nc2sccn12 | 23.6 | 0.82 µM [rising, full curve] | 0.92 µM [rising, full curve, poor fit]
47 | CCN(C(=O)COC(=O)CCOc1cccc(C)c1)c1c(N)n(Cc2ccccc2)c(=O)[nH]c1=O | 14.8 | 0.82 µM [falling, single point] | –
48 | Cn1nnnc1Sc1ncnc2scc(-c3cccs3)c12 | 10.2 | 0.146 µM [rising, full curve, poor fit] | –
49 | Cc1nn(-c2ccccc2)c2c1C(c1ccc(Cl)cc1)N(c1ccccc1)C(=O)N2 (stereo unspecified) | 45.8 | 6.51 µM [falling, single point] | 3.26 µM [falling, partial curve]
50 | CCOC(=O)Cc1nnn(CC(=O)OCC)n1 | 22.8 | 5.8 µM [rising, single point] | –
51 | C=CCn1c(Cc2cccs2)nnc1SCC(=O)Nc1ccc(C(=O)OCC)cc1 | 91.5 | 1.16 µM [rising, full curve, poor fit] | 5.17 µM [rising, full curve]
52 | O=C(NNC(=O)c1cc([N+](=O)[O-])ccc1Cl)c1cccnc1 | -3.68 | – | 0.0058 µM [falling, full curve, poor fit]
53 | O=C(O)c1ccc(Cl)c(NC(=O)C2CCCN2S(=O)(=O)c2cccc3nsnc23)c1 (stereo unspecified) | -12.8 | 5.17 µM [falling, full curve] | –
54 | Cc1ccc(OCC(=O)NNC(=S)NC(=O)C2CCCCC2)c(C)c1 | 5.95 | 1.16 µM [rising, full curve] | –
55 | CCc1nnc(NC(=O)c2ccc(S(=O)(=O)N3CCCCC3C)cc2)s1 (stereo unspecified) | 0.0646 | 6.51 µM [rising, single point] | –
56 | CS(=O)(=O)N1CCC(C(=O)O)CC1 | 24.3 | 6.51 µM [falling, single point] | –
57 | CCOC(=O)CSc1nnc(-c2ccc(Cl)cc2Cl)o1 | -203 | 29.1 µM [falling, single point] | 23.1 µM [falling, single point]
58 | O=C(CSc1ccc(Cl)cc1)N1CCN(c2ccc([N+](=O)[O-])cc2Cl)CC1 | -22.5 | 9.2 µM [rising, partial curve, poor fit] | –
59 | CN(Cc1nc2ccccc2c(=O)[nH]1)C(=O)c1ccc(S(=O)(=O)N(C)C)cc1 | 74.2 | – | 13 µM [rising, partial curve]

Ordered by SMILES length (rising): part of the list above
Row | SMILES | cell number change [%] | AC50 [1] | AC50 [2]
43 | CC(=O)c1coc2c1cc(O)c1ccccc12 | 9.46 | 6.51 µM [falling, single point] | –
46 | O=c1cc(CSc2nnc(Nc3ccccc3)s2)nc2sccn12 | 23.6 | 0.82 µM [rising, full curve] | 0.92 µM [rising, full curve, poor fit]
59 | CN(Cc1nc2ccccc2c(=O)[nH]1)C(=O)c1ccc(S(=O)(=O)N(C)C)cc1 | 74.2 | – | 13 µM [rising, partial curve]
